# Results from publication PMC8357812.
# Amino acid sequences for entries named in this document (tags omitted).
# UniProt Q07812: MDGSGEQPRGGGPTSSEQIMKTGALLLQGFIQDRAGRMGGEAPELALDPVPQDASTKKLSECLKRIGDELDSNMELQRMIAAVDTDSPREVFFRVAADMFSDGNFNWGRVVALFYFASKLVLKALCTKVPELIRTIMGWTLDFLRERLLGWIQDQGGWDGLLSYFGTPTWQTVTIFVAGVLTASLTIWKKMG
# UniProt Q70CQ3: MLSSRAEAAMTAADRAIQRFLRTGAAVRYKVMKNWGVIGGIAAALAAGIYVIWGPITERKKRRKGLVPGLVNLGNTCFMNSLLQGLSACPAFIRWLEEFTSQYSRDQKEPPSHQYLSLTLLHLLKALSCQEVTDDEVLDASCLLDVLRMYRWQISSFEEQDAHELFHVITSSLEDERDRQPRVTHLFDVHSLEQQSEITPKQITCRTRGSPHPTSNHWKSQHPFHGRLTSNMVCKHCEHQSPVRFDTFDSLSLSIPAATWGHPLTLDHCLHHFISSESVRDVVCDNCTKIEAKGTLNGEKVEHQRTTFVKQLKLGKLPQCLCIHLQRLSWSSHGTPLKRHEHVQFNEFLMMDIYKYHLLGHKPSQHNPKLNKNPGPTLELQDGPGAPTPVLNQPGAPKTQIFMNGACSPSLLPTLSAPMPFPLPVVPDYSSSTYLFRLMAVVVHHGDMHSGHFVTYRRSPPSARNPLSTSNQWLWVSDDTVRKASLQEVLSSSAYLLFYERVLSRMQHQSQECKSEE
# These are yes or no findings as the source states them, for the method shown. Binding seen in cells or lysates may run through a third protein. Some binding calls cover weakened binding; strength is not graded here.
# Target: Bax (human (endogenous in A549 and H1299)) (UniProt Q07812)
# Assay: co-IP; endogenous Bax immunoprecipitated with anti-Bax antibody coupled to Dynabeads M-270 Epoxy from A549 or H1299 cell lysates, rotated at 4 °C for 2 h; western blotting; also from USP30 knock-down H1299 cells (binding decreased)
substance,measurement,value
USP30 (from UniProt Q70CQ3 1-517) (enzyme),binding,binds
